These are yes or no findings as the source states them, for the method shown. Binding seen in cells or lysates may run through a third protein. A result given as binding can be weak or reduced; the word gives no strength.
Assays:
[1] = target: importin α1 of the small brown planthopper, recombinantly expressed with a His-tag (small brown planthopper Laodelphax striatellus); experiment: co-IP; protein G beads with anti-His monoclonal antibody and His-tagged recombinant protein (E. coli supernatant), then total proteins from 4th-instar viruliferous planthoppers (PBS pH 7.2) at 4 °C overnight; Western blot; pET28a expression products as negative control
[2] = target: importin α3 of the small brown planthopper, recombinantly expressed with a His-tag (small brown planthopper Laodelphax striatellus); experiment: as above
[3] = target: importin α2 of the small brown planthopper, recombinantly expressed with a His-tag (small brown planthopper Laodelphax striatellus); experiment: as above
[4] = target: importin α1 of the small brown planthopper, recombinantly expressed with a His-tag (small brown planthopper Laodelphax striatellus); experiment: co-IP; in vitro: protein G beads with anti-His or anti-Flag monoclonal antibody, incubated with 200 μL of His- or Flag-tagged recombinant protein (E. coli supernatant) 15 min at room temperature, then 500 μL of recombinant Flag- or His-tagged target protein at 4 °C overnight; Western blot; pET28a expression products as negative control
[5] = target: importin α3 of the small brown planthopper, recombinantly expressed with a His-tag (small brown planthopper Laodelphax striatellus); experiment: as above
[6] = target: importin α2 of the small brown planthopper, recombinantly expressed with a His-tag (small brown planthopper Laodelphax striatellus); experiment: as above

Sequences of proteins named here, by UniProt entry; tags and fusion partners are left off.
UniProt P68559: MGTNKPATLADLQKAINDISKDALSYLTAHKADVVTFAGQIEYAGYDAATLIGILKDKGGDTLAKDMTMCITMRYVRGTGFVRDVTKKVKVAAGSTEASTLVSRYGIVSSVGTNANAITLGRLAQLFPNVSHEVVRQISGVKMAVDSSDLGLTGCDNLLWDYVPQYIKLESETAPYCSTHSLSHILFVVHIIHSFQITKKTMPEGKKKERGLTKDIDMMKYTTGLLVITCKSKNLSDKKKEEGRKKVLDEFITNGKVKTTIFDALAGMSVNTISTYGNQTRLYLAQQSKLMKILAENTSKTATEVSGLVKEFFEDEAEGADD

Measured: binding

Rice stripe virus nucleocapsid protein (NP) from viruliferous planthoppers (from UniProt P68559 1-322)
binds: [1] | [2] | [3]

Rice stripe virus nucleocapsid protein (NP), recombinantly expressed with a Flag-tag (from UniProt P68559 1-322)
binds: [4] | [5] | [6]

Source: article PMC7936609
